## Screening data, single-dose tests

Sequences of proteins named here, by UniProt entry; tags and fusion partners are left off. Residues count along the entry.
UniProt I6X8D2, whole entry: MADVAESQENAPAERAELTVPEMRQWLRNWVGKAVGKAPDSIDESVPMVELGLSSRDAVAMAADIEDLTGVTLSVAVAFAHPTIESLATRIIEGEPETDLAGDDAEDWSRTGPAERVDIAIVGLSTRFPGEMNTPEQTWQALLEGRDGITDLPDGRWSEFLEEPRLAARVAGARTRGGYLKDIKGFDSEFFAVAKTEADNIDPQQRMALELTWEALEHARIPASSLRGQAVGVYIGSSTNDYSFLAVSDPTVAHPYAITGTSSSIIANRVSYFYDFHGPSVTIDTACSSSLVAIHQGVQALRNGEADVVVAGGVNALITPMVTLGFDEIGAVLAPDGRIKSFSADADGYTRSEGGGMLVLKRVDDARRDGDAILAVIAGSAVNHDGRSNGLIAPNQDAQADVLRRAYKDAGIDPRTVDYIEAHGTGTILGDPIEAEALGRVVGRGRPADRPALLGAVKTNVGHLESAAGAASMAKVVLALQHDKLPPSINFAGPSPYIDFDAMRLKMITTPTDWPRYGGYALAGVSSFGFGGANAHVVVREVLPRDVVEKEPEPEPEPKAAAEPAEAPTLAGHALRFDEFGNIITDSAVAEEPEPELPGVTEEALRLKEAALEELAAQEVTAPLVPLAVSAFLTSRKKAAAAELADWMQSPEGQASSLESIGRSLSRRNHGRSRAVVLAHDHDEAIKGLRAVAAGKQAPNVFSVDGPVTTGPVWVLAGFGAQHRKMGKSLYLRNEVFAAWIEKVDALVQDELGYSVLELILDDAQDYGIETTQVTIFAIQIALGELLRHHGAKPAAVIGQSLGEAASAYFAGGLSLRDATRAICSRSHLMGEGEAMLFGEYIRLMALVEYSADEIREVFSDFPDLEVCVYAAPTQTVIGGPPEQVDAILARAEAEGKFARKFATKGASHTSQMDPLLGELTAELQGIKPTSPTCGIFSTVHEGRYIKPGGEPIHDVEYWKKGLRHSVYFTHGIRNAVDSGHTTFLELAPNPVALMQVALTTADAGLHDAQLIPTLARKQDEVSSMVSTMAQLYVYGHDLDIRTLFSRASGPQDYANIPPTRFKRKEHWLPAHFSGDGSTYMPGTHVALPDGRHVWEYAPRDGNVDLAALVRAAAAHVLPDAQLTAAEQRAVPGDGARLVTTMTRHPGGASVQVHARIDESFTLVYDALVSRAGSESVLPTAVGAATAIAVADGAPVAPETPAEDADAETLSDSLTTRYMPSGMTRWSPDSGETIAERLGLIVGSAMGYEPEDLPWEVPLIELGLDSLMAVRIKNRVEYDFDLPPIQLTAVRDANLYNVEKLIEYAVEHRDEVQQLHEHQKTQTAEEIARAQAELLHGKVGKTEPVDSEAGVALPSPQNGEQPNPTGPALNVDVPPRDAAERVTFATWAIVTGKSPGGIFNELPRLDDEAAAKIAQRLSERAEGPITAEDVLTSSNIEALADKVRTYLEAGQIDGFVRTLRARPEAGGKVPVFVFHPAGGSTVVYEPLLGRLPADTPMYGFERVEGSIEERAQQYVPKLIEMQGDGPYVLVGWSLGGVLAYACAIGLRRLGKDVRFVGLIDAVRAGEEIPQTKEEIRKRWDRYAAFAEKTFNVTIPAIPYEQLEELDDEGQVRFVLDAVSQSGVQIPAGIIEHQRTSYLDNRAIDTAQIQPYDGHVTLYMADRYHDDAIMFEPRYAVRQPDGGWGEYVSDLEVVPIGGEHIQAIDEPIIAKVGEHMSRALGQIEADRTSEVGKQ
UniProt Q8IDJ8, 1-583: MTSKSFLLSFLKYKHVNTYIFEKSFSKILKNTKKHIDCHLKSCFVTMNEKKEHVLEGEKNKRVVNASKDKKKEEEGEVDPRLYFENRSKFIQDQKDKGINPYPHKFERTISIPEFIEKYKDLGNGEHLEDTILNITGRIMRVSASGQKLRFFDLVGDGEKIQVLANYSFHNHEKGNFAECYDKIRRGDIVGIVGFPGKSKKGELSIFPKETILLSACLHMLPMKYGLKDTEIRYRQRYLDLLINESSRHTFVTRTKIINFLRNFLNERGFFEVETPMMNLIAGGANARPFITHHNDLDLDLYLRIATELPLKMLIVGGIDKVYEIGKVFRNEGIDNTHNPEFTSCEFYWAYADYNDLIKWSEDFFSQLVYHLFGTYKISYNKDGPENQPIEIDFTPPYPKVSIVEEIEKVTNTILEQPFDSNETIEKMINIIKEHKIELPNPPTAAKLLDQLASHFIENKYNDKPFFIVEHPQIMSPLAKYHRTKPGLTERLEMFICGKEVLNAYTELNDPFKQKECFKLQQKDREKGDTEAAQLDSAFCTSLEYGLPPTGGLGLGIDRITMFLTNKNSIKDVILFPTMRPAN
UniProt A4I591, 1-473: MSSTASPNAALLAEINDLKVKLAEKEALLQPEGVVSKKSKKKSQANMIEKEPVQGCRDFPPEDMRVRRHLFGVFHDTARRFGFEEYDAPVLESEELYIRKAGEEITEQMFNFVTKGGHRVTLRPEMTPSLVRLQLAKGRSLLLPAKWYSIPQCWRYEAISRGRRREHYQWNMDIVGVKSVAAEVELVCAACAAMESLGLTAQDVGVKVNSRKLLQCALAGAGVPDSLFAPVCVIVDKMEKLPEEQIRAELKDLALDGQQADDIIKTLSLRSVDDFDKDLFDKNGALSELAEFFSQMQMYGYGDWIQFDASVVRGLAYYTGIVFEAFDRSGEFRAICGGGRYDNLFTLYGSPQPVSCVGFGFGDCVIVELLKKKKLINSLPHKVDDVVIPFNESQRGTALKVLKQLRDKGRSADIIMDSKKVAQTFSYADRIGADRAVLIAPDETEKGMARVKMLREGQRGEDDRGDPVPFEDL
UniProt P9WFT3, whole entry: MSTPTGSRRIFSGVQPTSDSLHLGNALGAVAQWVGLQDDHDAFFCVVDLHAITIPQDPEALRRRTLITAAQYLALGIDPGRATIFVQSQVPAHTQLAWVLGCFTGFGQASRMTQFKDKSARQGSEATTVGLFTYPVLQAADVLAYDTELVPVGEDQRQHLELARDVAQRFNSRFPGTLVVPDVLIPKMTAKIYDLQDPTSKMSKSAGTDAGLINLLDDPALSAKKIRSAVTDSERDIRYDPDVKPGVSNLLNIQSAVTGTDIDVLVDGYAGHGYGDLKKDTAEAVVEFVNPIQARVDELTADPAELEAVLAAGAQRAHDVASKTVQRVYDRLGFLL

Pks13 thioesterase: 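Enzyme assay of the thioesterase domain of polyketide synthase 13; the read-out is not stated. Target: Polyketide synthase Pks13, Mycobacterium tuberculosis (UniProt I6X8D2). Compounds at 30 µM. The record gives no direction; the compounds picked for IC50 retests had high values, so higher reads as stronger inhibition. About 67,000 compounds were tested under these conditions; 0.46% (about 300) showed 50% or more at least once.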
PfKRS1: 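Enzyme assay of the cytosolic lysyl-tRNA synthetase in 384-well plates, read by luminescence. Target: Lysine-tRNA ligase, Plasmodium falciparum 3D7 (UniProt Q8IDJ8). Compounds at 30 µM. Higher reads as stronger inhibition, judged from the few compounds that gave an IC50. Size under these conditions: about 69,000 compounds, about 49 of them at 50% or above in at least one test.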
LiHisRS: 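Enzyme assay of histidyl-tRNA synthetase; the read-out is not stated. Target: Histidine-tRNA ligase, Leishmania infantum (UniProt A4I591). Concentration: 30 µM. Direction is inferred from retests: higher values go with stronger inhibition. The assay is labelled LdHisRS but filed under L. infantum. Size under these conditions: about 69,000 compounds, about 410 of them at 50% or above in at least one test.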
MtTrpRS: 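Enzyme assay of tryptophanyl-tRNA synthetase; the read-out is not stated. Target: Tryptophan-tRNA ligase, Mycobacterium tuberculosis (UniProt P9WFT3). Tested at 10 µM. Direction is not recorded; retested compounds ran higher, which suggests that high means inhibition. About 65,000 compounds were tested under these conditions; 0.098% (about 64) showed 50% or more at least once.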

Values are the deposited “Percent Effect”, in %. The controls that fix the scale are not given in the record; negative values are as filed. This is an unselected part of the compounds tested. A dash means the value is not listed here; it may have been measured.

| structure | Pks13 thioesterase | PfKRS1 | LiHisRS | MtTrpRS |
|---|---|---|---|---|
| `Cc1cccc(N(CC(=O)N2CCCCC2)C(=O)C2CCCO2)c1` (stereo unspecified) | -20.56% | -0.5147% | 12.86% | -1.625% |
| `Cc1nn(C)c(N2CCOCC2)c1CNCc1cccnc1` | -11.37% | -2.411% | -5.31% | 0.5735% |
| `CS(=O)(=O)N[C@@H]1CCN(Cc2cccs2)[C@H]1Cc1cccnc1` | -15.68% | -0.5573% | -2.941% | -0.5761% |
| `Cn1ccnc1CN1CCCN(C(=O)c2cccc(CC#N)c2)CC1` | - | -1.101% | 9.821% | 5.503% |
| `COCCN1CCC2(CC1)CC(NCc1cncn1C)c1ccccc12` (stereo unspecified) | -17.05% | 8.189% | 10.34% | -3.776% |
| `CNS(=O)(=O)c1ccc(C(=O)NCCc2ccccn2)cc1` | -4.406% | 4.022% | 31.82% | -2.437% |
| `Cc1nsc(NCc2ccc(CS(=O)(=O)NC(C)C)cc2)n1` | -1.133% | 3.697% | 14.91% | 0.3112% |
| `CC(C)Nc1ncnc2c1CCN(C(=O)c1ccc[nH]1)CC2` | -9.355% | 1.255% | 15.6% | 1.604% |
| `Cc1cncc(C2CCCN(C(=O)c3ccc(C)[nH]c3=O)C2)n1` (stereo unspecified) | -8.218% | 3.083% | 20% | 1.75% |
| `CCC(c1ccc(F)cc1)N1CCn2c(CO)nnc2C1` (stereo unspecified) | -11.72% | 0.7635% | 3.371% | -1.537% |
| `CN(C)c1ccc(C(=O)N2CCCc3cc(OC(F)(F)F)ccc32)cn1` | -31.93% | 2.944% | 15.38% | -7.782% |
| `O=C(NCCN1CCCCCC1)c1cccc(Cl)c1Cl` | -17.97% | 1.045% | 14.58% | -0.1142% |
| `Cc1sc2nc(SC(C)c3nc(C(C)(C)C)no3)nc(N)c2c1C` (stereo unspecified) | -12.83% | 1.347% | 11.11% | 2.099% |
| `COCCNS(=O)(=O)c1cccc2c1CN(C(=O)c1ccccc1)CC2` | -13.1% | -4.28% | 0.9615% | 11.94% |
| `CNC(=O)Cn1ccc2ccc(NC(=O)C(C)CSC)cc21` (stereo unspecified) | -10.48% | 5.044% | 14.58% | -3.002% |
| `CCOCCC(=O)N1CCCC(c2cc(C(F)(F)F)[nH]n2)C1` (stereo unspecified) | -6.81% | 3.195% | 9.333% | 0.983% |
| `COc1ccc(NC(=O)NC(C)(C)c2noc(C)n2)cc1` | -14.19% | -2.539% | 23.08% | 1.782% |
| `O=C(C1CCOCC1)N1CC[C@H](O)[C@@H]1Cc1cccnc1` | -8.633% | 2.972% | 11.82% | - |
| `CC(=O)N1CCCN(CC(C)(O)c2cccc(C(F)(F)F)c2)CC1` (stereo unspecified) | -6.36% | -0.8449% | 9.375% | 2.715% |
| `CC(=O)N(c1ccc(C)cc1)c1nc(CN2CCCCC2C)cs1` (stereo unspecified) | -9.032% | 1.562% | 2.151% | -4.615% |
| `O=C(c1cnc(O)cn1)N1CCCC1c1nc2cc(F)ccc2[nH]1` (stereo unspecified) | 5.873% | 7.305% | 13.58% | -2.037% |
| `CC(C)C1CN(C(=O)c2cn3ccccc3n2)CCCN1CC1CC1` (stereo unspecified) | -9.96% | 2.349% | 14.52% | -2.553% |
| `CN(Cc1ccsc1)C(=O)CN1CCOC(Cn2cncn2)C1` (stereo unspecified) | -16.28% | 1.608% | 1.709% | 6.53% |
| `CCOc1cc(/C=C/c2ncc(C(=O)O)s2)cc(Br)c1O` | 59.76% | -0.3306% | 31.58% | -2.603% |
| `O=C(CCCN1CCCCC1)NC(C(=O)O)c1ccc(Cl)cc1` (stereo unspecified) | -29.98% | 7.59% | 7.08% | 5.306% |
| `Nc1no[n+]([O-])c1C(=O)NCc1ccco1` | -40.12% | 2.433% | 2.899% | 10.5% |
| `CC1(C)CN(c2cc(C3CC3)ncn2)C[C@]1(C)O` | -8.669% | -8.318% | -3.333% | -3.207% |
| `O=C(NCc1ccco1)N1CCCCC1c1nc(C2CC2)no1` (stereo unspecified) | -5.59% | 2.649% | 17.39% | -6.752% |
| `CS(=O)(=O)NC[C@]12COC[C@H]1CN(CC1CCCC1)C2` | -15.45% | 3.83% | 9.023% | 3.4% |
| `COC(=O)[C@H](C)NC(=O)c1cnc(Cc2ccc(F)cc2)s1` | -6.797% | 8.76% | 9.821% | -5.865% |
| `Cc1noc(C)c1CN1CCc2ncnc(-c3ccoc3)c2CC1` | -46.18% | -0.8033% | 2.727% | - |
| `O=C1c2cnc(N3CCOCC3)nc2CN1Cc1cccc(F)c1` | -22.01% | 5.078% | 14.29% | 1.364% |
| `c1ccc2c(N3CCOC(Cn4cccn4)C3)ncnc2c1` (stereo unspecified) | -9.61% | 13.24% | 20% | 4.713% |
| `C[C@@H]1CN(C(=O)CCCN2CCOCC2)CC[C@@]1(O)C1CCC1` | -22.02% | -1.601% | 5.714% | 4.534% |
| `CC(C)N(CC(N)=O)Cc1csc(Cc2ccccc2)n1` | -23.05% | 1.244% | 1.124% | -1.495% |
| `Cc1cccnc1CN1CCN(Cc2ccc(-c3cc[nH]n3)o2)CC1` | -19.69% | 0.9509% | 26.67% | -0.4244% |
| `CC(C)N(C)CC(=O)N1CCCC(c2ccc(C(=O)O)cc2)C1` (stereo unspecified) | -10.6% | 2.238% | 24.76% | 6.099% |
| `Cc1nccn1CCCN1CCC2(CCC(=O)N(CC3CC3)C2)CC1` | -11.57% | -0.8213% | 22.34% | 3.226% |
| `CCS(=O)(=O)N1CCCC2(CCCN2C(=O)c2cn(C)cn2)C1` (stereo unspecified) | -17.79% | 5.52% | 2% | -3.843% |

The last 4 entries again:

{"structure": "Cc1cccnc1CN1CCN(Cc2ccc(-c3cc[nH]n3)o2)CC1", "Pks13 thioesterase": -19.69, "PfKRS1": 0.9509, "LiHisRS": 26.67, "MtTrpRS": -0.4244}
{"structure": "CC(C)N(C)CC(=O)N1CCCC(c2ccc(C(=O)O)cc2)C1", "stereo": "stereo unspecified", "Pks13 thioesterase": -10.6, "PfKRS1": 2.238, "LiHisRS": 24.76, "MtTrpRS": 6.099}
{"structure": "Cc1nccn1CCCN1CCC2(CCC(=O)N(CC3CC3)C2)CC1", "Pks13 thioesterase": -11.57, "PfKRS1": -0.8213, "LiHisRS": 22.34, "MtTrpRS": 3.226}
{"structure": "CCS(=O)(=O)N1CCCC2(CCCN2C(=O)c2cn(C)cn2)C1", "stereo": "stereo unspecified", "Pks13 thioesterase": -17.79, "PfKRS1": 5.52, "LiHisRS": 2, "MtTrpRS": -3.843}

Source: ChEMBL document CHEMBL3988442, “University of Dundee, Small-Polar-MMV Screening Library” (2021).